# Results are given in words; binding and its absence hold for the method and conditions named. In cells and extracts the contact can be indirect. Some results given as binding are weak or reduced against the parent protein; the word gives no strength.
# Molecular target: Yes-associated protein (YAP) (human (endogenous in IUA-EndoSCs)), P46937
# Test: co-IP; lysates of IUA-EndoSCs (control, or treated 24 h with EXO or EXO^PDGFBB); immunoprecipitated with YAP antibody at 4 °C overnight, protein A-sepharose beads 4 h; eluate analysed by western blot
# Conditions: remark: other sources report otherwise
binder,measurement,value
"SMAD3, P84022 1-425 (protein) MSSILPFTPPIVKRLLGWKKGEQNGQEEKWCEKAVKSLVKKLKKTGQLDELEKAITTQNVNTKCITIPRSLDGRLQVSHRKGLPHVIYCRLWRWPDLHSHHELRAMELCEFAFNMKKDEVCVNPYHYQRVETPVLPPVLVPRHTEIPAEFPPLDDYSHSIPENTNFPAGIEPQSNIPETPPPGYLSEDGETSDHQMNHSMDAGSPNLSPNPMSPAHNNLDLQPVTYCEPAFWCSISYYELNQRVGETFHASQPSMTVDGFTDPSNSERFCLGLLSNVNRNAAVELTRRHIGRGVRLYYIGGEVFAECLSDSAIFVQSPNCNQRYGWHPATVCKIPPGCNLKIFNNQEFAALLAQSVNQGFEAVYQLTRMCTIRMSFVKGWGAEYRRQTVTSTPCWIELHLNGPLQWLDKVLTQMGSPSIRCSSVS",binding,binds

# From publication PMC10148410
